# In all, about 1,700 compounds were measured (“T3 sensor activation Q score (MG/GFP ratio z-score vs DMSO controls)”: median about 0.25, highest 2% from about 1.9 on). Some of the results follow.
# Test system: ppGalNAc-T3 sensor
# Assay: T3 sensor activation Q score (MG/GFP ratio z-score vs DMSO controls) (SD units); higher = more sensor activation (inhibition of ppGalNAc-T3 glycosylation)
# Conditions: HEK293 sensor cells; 10 µM; 6 h
# Procedure: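 Cells were treated with compound at 10 uM for 6 h, then MG/GFP ratio was read by flow cytometry (10,000 cells per well, duplicate wells). Q = (R - R_neg)/SD_neg relative to DMSO vehicle controls; the signal rises when the glycosyltransferase is inhibited.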
row,SMILES,T3 sensor activation Q score
1,C=CCc1ccccc1OCC(=O)O,-1.5
2,CSc1ccc2c(c1)C(N1CCN(C)CC1)Cc1ccccc1S2 (stereo not drawn),-1.65
3,Cc1nnc2nc(-c3ccccc3)nc(-c3ccccc3)n12,-1.75
4,CC(=O)n1cc(C2CC(=O)OC3=C2CC(=O)C(C)(C)C3)c2ccccc21 (stereo not drawn),-0.35
5,O/N=C(/c1ccccc1)c1ccc2c3c(cccc13)CC2,1.1
6,CCOCc1cc(=O)[nH]c(SC)n1,-0.7
7,CCOC(=O)/C(C#N)=C/c1cccc(C)c1,-0.5
8,O=S1(=O)CCC(N(N=Cc2ccco2)c2ccccc2)C1 (stereo not drawn),0.25
9,O=C(Cn1nnc(N2CCCCC2)n1)N/N=C/c1ccccc1O,0.95
10,Cn1c(=O)c2c(nc(N3CCCCC3)n2C)n(C)c1=O,-0.65
11,Nc1nc(N)c2c(ccc3nccc32)[nH]1,-0.45
12,Cc1c2cc[n+](CCN3CCCCC3)cc2c(C)c2c1[nH]c1ccc(O)cc12,0.45
13,CC(C)(C)CC(C)(C)n1nnnc1N,1
14,Oc1cc(-n2cccn2)c(O)cc1-n1cccn1,0.15
15,O=C(CCCCCCC(=O)Nc1ccccc1)NO,0.85
16,Cn1nc(N)c2ncc(C(Cl)(Cl)Cl)nc21,-1.6
17,COc1ccc2nccc(/C=C/c3ccnc4ccc(OC)cc34)c2c1,-1.05
18,O=C(NC(=S)Nc1cccc(O)c1)c1ccco1,-0.4
19,O=[N+]([O-])/C=C/c1cc2ccccc2[nH]1,-0.75
20,O=c1cc2c(=O)oc3cc(O)c(O)oc3c2c(O)c1O,1.6
21,NC(=S)Nc1cccc(Cl)c1,-1.15
22,Cc1c(COC(=O)NC(C)C)c(COC(=O)NC(C)C)c2n1CS(=O)(=O)C2,0.8
23,O=C(Nc1ccc(C2=NCCN2)cc1)c1ccc(Cl)c(C(=O)Nc2ccc(C3=NCCN3)cc2)c1,1.3
24,c1cc(-n2nnc3cnccc32)ccn1,-1.2
25,COc1ccc(NC(=O)CC(C)=O)c(OC)c1,-0.1
26,CCCCOP(=O)(OCCCC)C1(C)CC(=O)CC(C)(C)C1 (stereo not drawn),-0.35

# Quoted at random: 7 records from the list
row,SMILES,T3 sensor activation Q score
19,O=[N+]([O-])/C=C/c1cc2ccccc2[nH]1,-0.75
20,O=c1cc2c(=O)oc3cc(O)c(O)oc3c2c(O)c1O,1.6
6,CCOCc1cc(=O)[nH]c(SC)n1,-0.7
15,O=C(CCCCCCC(=O)Nc1ccccc1)NO,0.85
16,Cn1nc(N)c2ncc(C(Cl)(Cl)Cl)nc21,-1.6
23,O=C(Nc1ccc(C2=NCCN2)cc1)c1ccc(Cl)c(C(=O)Nc2ccc(C3=NCCN3)cc2)c1,1.3
21,NC(=S)Nc1cccc(Cl)c1,-1.15

# (list continues)

row,SMILES,T3 sensor activation Q score
1,CC(=O)Nc1c(C)cc(OCC(=O)O)cc1C,-0.3
2,COc1ccc(/C=C2/CCOC2=O)cc1,-1.3
3,O=NN(CCCl)C(=O)NCCCl,1
4,C1=CC2(C=C1)OC21CCC2(C=CC3(C2)OC3C2CCCCC2)CC1 (stereo not drawn),1.05
5,O=C(O)C(c1ccccc1)C1(O)CCCCC1 (stereo not drawn),0.2
6,CC(C)(C)NC(=O)c1ccc(C(=O)NC(C)(C)C)cc1,-0.4
7,CCCCN1CCNC1=S,-0.95
8,O=c1[nH]c(C(F)(F)C(F)(F)C(F)(F)F)no1,-0.1
9,Cc1[nH]c(=O)n(C(C)C)c(=O)c1Br,0.5
10,COC(=O)c1cncc(C)c1,-1.15
11,Nc1nc(N)nc(C2C=CCCC2)n1 (stereo not drawn),1.55
12,CCCCOc1ccc(NC(=O)Nc2nnc(C)s2)cc1,1.45
13,CC(C)(C)NC1=NCCNC(c2ccccc2)=C1,0.15
14,Clc1cc2c(nn1)Nc1ccccc1S2,0.2
15,O=C(O)C(Cc1c[nH]c2ccccc12)N1C(=O)c2ccccc2C1=O (stereo not drawn),0.2
16,CCOC(=O)c1nc(SC)n(C)c1C(=O)OCC,0.35
17,COc1cc(NC(=O)c2cc3ccccc3cc2O)c(OC)cc1Cl,-6.4
18,O=S(=O)(O)c1ccc2c(c1)C(C(Cl)(Cl)Cl)OC(C(Cl)(Cl)Cl)O2 (stereo not drawn),0.65
19,CC1=C(O)C(=O)C(c2c(C)cc(C)c(Br)c2C)=C(O)C1=O,1.35
20,CCC(C)c1c(N)n(S(=O)(=O)c2ccc(C)cc2)oc1=O (stereo not drawn),0.6
21,N#CC1C(=O)NC(=O)C(C#N)C12CCCC(C(F)(F)F)C2 (stereo not drawn),0.3
22,NC(=O)c1ccc(Oc2ccc(C(N)=O)cc2)cc1,-1
23,c1ccc(NN(Cc2ccncc2)c2ccccc2)cc1,-0.1
24,O=S1(=O)CCN(Cc2ccccn2)CC1,1.25
25,CCCCCC(=O)C(=O)c1ccc(O)cc1O,0.75
26,O=C(CN1CCOCC1)N1CCOCC1,0.65

row,SMILES,T3 sensor activation Q score
1,Cc1ccc(-n2nnnc2-c2cccnc2)cc1,-0.15
2,N#Cc1cc(-c2ccccc2)[nH]c1-c1nccc2ccccc12,-1.45
3,Nc1ccccc1C(=O)Nc1ccc(Cl)cc1Cl,0.95
4,O=C(O)CCc1cccnc1,0.5
5,Clc1ccccc1-c1nc(-c2ccncc2)no1,1.35
6,CC(=O)c1cc2c(cc1C)CCCC2(C)C,-0.3
7,C=CCOC(=O)/C=C\C(=O)NC(N)=O,0.9
8,COc1ccc([N+](=O)[O-])cc1NC(=O)N(C)Cc1ccco1,0
9,CC1(C)CC2(C)OC2C2(C1)N=NC(=Nc1ccccc1)O2 (stereo not drawn),0.95
10,CC1(C)c2ccccc2-c2nc3ccccc3cc2C1O (stereo not drawn),-0.95
11,N#CCS(=O)(=O)c1cccc[n+]1[O-],-0.95
12,COC(=O)[C@H]1[C@H]2C[C@@H]3c4[nH]c5cc(OC)ccc5c4CCN3C[C@H]2C[C@@H](OC(=O)CC(C)=O)[C@@H]1OC,0.85
13,O=CN/C=C\c1cc(O)ccc1O,0.35
14,CC(C)(C)c1nc(-c2cccc(NS(=O)(=O)c3c(F)cccc3F)c2F)c(-c2ccnc(N)n2)s1,1.05
15,O=C(c1ccccc1)c1ccc(-c2ccc(O)cc2)cc1,1.35
16,Nc1ccccc1SC1CC(=O)N(c2ccc(Cl)c(Cl)c2)C1=O (stereo not drawn),1.7
17,Nc1ccccc1SC1CC(=O)N(c2ccccc2Cl)C1=O (stereo not drawn),0.8
18,O=C1C(CO)C(CO)C(CO)C1CO (stereo not drawn),1
19,O=C1N=NC2=C1c1c3ccccc3c(O)n1CC2,1.7
20,Nc1cc(-c2ccccc2)ccc1O,-0.45
21,N#CC1=C2CCCCC2(O)NC1=O (stereo not drawn),-0.45
22,N#Cc1ncc(Cl)c2ccccc12,0.9
23,Nc1ccc(S(=O)(=O)Nc2cnc3ccccc3n2)cc1,0.45
24,NC(N)=Nc1ccc(N=C(N)N)cc1,0.3
25,O=c1ccn2c(n1)SC(c1ccccc1)C2 (stereo not drawn),0.2
26,CSc1cccc(NC(=O)N2CCN(C)CC2)c1,-0.1

# Compounds listed so far that contain two or more sulfur atoms:
row,SMILES,T3 sensor activation Q score
2,CSc1ccc2c(c1)C(N1CCN(C)CC1)Cc1ccccc1S2 (stereo not drawn),-1.65
14,CC(C)(C)c1nc(-c2cccc(NS(=O)(=O)c3c(F)cccc3F)c2F)c(-c2ccnc(N)n2)s1,1.05

# More records follow:

row,SMILES,T3 sensor activation Q score
1,Cn1c(SCc2ccccn2)nc2c1c(=O)[nH]c(=O)n2C,0.75
2,CCCCSc1cc(C)nc(N)n1,0.9
3,Oc1ccccc1N=Cc1c(O)ccc2ccccc12,0.25
4,COc1ccc2c(=O)cc(-c3cccnc3)oc2c1OC,0.1
5,CSc1nc(O)c(Nc2cccc(Cl)c2)c(=O)[nH]1,0.3
6,O=C(Nc1ccc(Cl)cc1)Nc1cccc2nsnc12,-1.05
7,OC(c1cc(-c2ccc(C(F)(F)F)cc2)nc(C(F)(F)F)c1)C1CCCCN1 (stereo not drawn),-2.3
8,Clc1ccc(SCNc2ccccc2Cl)cc1,-0.2
9,N=C(N)n1c(N)nc2ccccc2c1=O,-0.55
10,C#CCCOC(=O)Nc1ccccc1,-0.85
11,Oc1ccc(/C=C/c2cnccn2)cc1,0.15
12,CC12C(=O)N(c3nccs3)C(=O)C1(C)C1CCC2O1 (stereo not drawn),-0.85
13,CCOC(=O)c1c(N)ssc1=S,0.35
14,COC(=O)Cc1[nH]c(=O)[nH]c1C(=O)OC,-0.2
15,O=C1NC(=O)N2CCSC2(Cc2ccccc2)N1 (stereo not drawn),1.05
16,C=C(C)C(=O)Oc1ccc(N=Nc2ccc(C)cc2)ccc1=O,-1.2
17,Cc1cc(OCCCCOc2ccc(C#N)cc2)ccc1[N+](=O)[O-],-0.75
18,Cc1cn(-c2cc(NC(=O)c3ccc(C)c(Nc4nccc(-c5cccnc5)n4)c3)cc(C(F)(F)F)c2)cn1,0.5
19,O=[N+]([O-])c1cccc(/C=C/c2ccccn2)c1,-0.15
20,CC12CCC(C(=Nc3ccc(N=C4C(=O)C5(C)CCC4C5(C)C)cc3)C1=O)C2(C)C,-0.3
21,CCC(CC)NCCOC(=O)c1ccc([N+](=O)[O-])cc1,-1.45
22,OC(C#Cc1ccccc1)(c1ccccc1)c1ccccc1,0.2
23,CC1=CC(C)(C)NC(=S)N1c1cccc2cc(S(=O)(=O)O)ccc12,1.4
24,CN1C(=O)CC2(C)C1=CCc1scnc12 (stereo not drawn),1.2
25,Cn1c(=O)c2[nH]c(SCc3ccccn3)nc2n(C)c1=S,0.45
26,O=C(N(c1ccccc1)c1ccccc1)N(c1ccccc1)c1ccccc1,1

row,SMILES,T3 sensor activation Q score
1,O=[N+]([O-])c1ccc(Sc2cccc[n+]2[O-])c2nonc12,-1.75
2,C1CCCC(NC2=NCCO2)CCC1,0.2
3,CC(C)(CO)N1CCN(C(=S)Nc2ccccc2)CC1,0.55
4,O=c1cc(-c2ccc(O)cc2)oc2c(O)c(O)c(O)c(O)c12,0.4
5,Cc1ccc(Nc2n[nH]c(=S)s2)cc1F,-0.1
6,c1ccc(-c2nc[nH]c2-c2ccccc2)cc1,0.1
7,COc1ccn(C2CCCCO2)c(=O)n1 (stereo not drawn),1.6
8,CC12CCC(C1)C(C)(C)C2OC(=O)c1ccccc1C(=O)O (stereo not drawn),0.1
9,O=c1[nH]c(=O)n2ncnc2[nH]1,-0.65
10,CCS(=O)(=O)C1C(=O)N(C)C(S(=O)(=O)CC)C(=O)N1C (stereo not drawn),0.95
11,CC1=CC(=O)Nc2cncnc2N1,-0.3
12,CC(=O)N1C(=O)C2(NCC(C)N2)c2ccccc21 (stereo not drawn),-0.65
13,CC(=O)O[C@H]1C(=O)[C@@]2(C)[C@H]([C@H](OC(=O)c3ccccc3)[C@]3(O)C[C@H](OC(=O)[C@H](O)[C@@H](NC(=O)c4ccccc4)c4ccccc4)C(C)=C1C3(C)C)[C@]1(OC(C)=O)CO[C@@H]1C[C@@H]2O,-1.25
14,NC(N)=NC(=S)Nc1ccc(Cl)cc1,0.35
15,O=[N+]([O-])c1ccc(/C=[N+](\[O-])CCO)o1,-0.75
16,CCCSc1ncnc2[nH]ncc12,1.45
17,NC(=S)NC(=O)c1ccccc1,1.4
18,Nc1o[nH]c(=O)c1C1CCCCC1,0.7
19,COc1cccc2c1C(=O)c1c(O)c3c(c(O)c1C2=O)C[C@@](O)(C(=O)CO)C[C@@H]3O[C@H]1C[C@H](N)[C@@H](O)[C@H](C)O1,1.3
20,COc1cc(CC(=O)C(=O)O)oc(=O)c1,0.6
21,COc1cc(/C=N/Nc2nc3c([nH]2)c(=O)n(C)c(=O)n3C)ccc1O,1.75
22,CCCn1cnc2c(=S)nc(N)[nH]c21,0.75
23,CCOC(=O)/C=C/c1nc(C(=O)OCC)c(C)c(=O)[nH]1,1.9
24,COC(=O)C[C@](O)(CCCC(C)(C)O)C(=O)O[C@@H]1C(OC)=C[C@]23CCCN2CCc2cc4c(cc2[C@H]13)OCO4,-0.45

# Reference: the supplement of paper PMC5407854, “Inhibitor of ppGalNAc-T3-mediated O-glycosylation blocks cancer cell invasiveness and lowers FGF23 levels” (eLife, 2017)
